Taken from: PubChem BioAssay AID743121 (NCATS, 2013)
Purpose: 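Knock-downs that sensitise breast cancer cells to camptothecin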 (primary screen). Cells: MDA-MB-231 cells, a human breast cancer line. Knock-down reagent: single siRNA against human genes, 20 nM siRNA (0.8 pmol per well). Timing: 120 h (drug added 48 h after transfection, read 72 h later). Conditions: camptothecin 20 nM (about EC30) for 72 h; vehicle 0.1% DMSO in parallel plates. Read-out: 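Cell viability by ATP luminescence (CellTiter-Glo) as % of non-targeting siRNA wells, and the log2 ratio of viability without drug over viability with camptothecin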. Direction: log2 vehicle/camptothecin viability: higher = stronger sensitisation to camptothecin. Call rule: 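Each gene scored by redundant siRNA activity (RSA) over its individual siRNA ratios; a gene is called active at p < 0.001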.
In all, the deposit lists about 26,000 reagents; below is a part drawn at random. 167 of them (0.63%) count as active. 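Calls are per gene from RSA p-values that are not deposited; an individual active-marked siRNA can sensitise only weakly.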 The numbers tell different reagents against one gene apart. Not all columns of the deposit are shown. No sequences are given here.

log2 vehicle/camptothecin viability | call | gene knocked down | reagent
0.183 | inactive | CRH (corticotropin releasing hormone) | 1
-0.153 | inactive | CRH (corticotropin releasing hormone) | 2
0.204 | inactive | CRH (corticotropin releasing hormone) | 3
-0.163 | inactive | CRH (corticotropin releasing hormone) | 4
-0.441 | inactive | TRIB2 (tribbles pseudokinase 2) | 1
-0.477 | inactive | TRIB2 (tribbles pseudokinase 2) | 2
0.318 | inactive | TRIB2 (tribbles pseudokinase 2) | 3
0.464 | inactive | TRIB2 (tribbles pseudokinase 2) | 4
0.388 | inactive | TRIM23 (tripartite motif containing 23) | 1
-0.143 | inactive | TRIM23 (tripartite motif containing 23) | 2
0.0549 | inactive | TRIM23 (tripartite motif containing 23) | 3
0.869 | inactive | PPP1R3D (protein phosphatase 1 regulatory subunit 3D) | 1
-0.152 | inactive | PPP1R3D (protein phosphatase 1 regulatory subunit 3D) | 2
-0.785 | inactive | PPP1R3D (protein phosphatase 1 regulatory subunit 3D) | 3
-0.291 | inactive | PPP1R3D (protein phosphatase 1 regulatory subunit 3D) | 4
0.135 | inactive | ITGB3 (integrin subunit beta 3) | 1
-0.548 | inactive | ITGB3 (integrin subunit beta 3) | 2
0.015 | inactive | ITGB3 (integrin subunit beta 3) | 3
-0.542 | inactive | ITGB3 (integrin subunit beta 3) | 4
-0.285 | inactive | NMT1 (N-myristoyltransferase 1) | 1
0.0959 | inactive | NMT1 (N-myristoyltransferase 1) | 2
-0.0814 | inactive | NMT1 (N-myristoyltransferase 1) | 3
-0.235 | inactive | NMT1 (N-myristoyltransferase 1) | 4
-0.438 | inactive | USP10 (ubiquitin specific peptidase 10) | 1
-0.482 | inactive | USP10 (ubiquitin specific peptidase 10) | 2
-0.261 | inactive | USP10 (ubiquitin specific peptidase 10) | 3
-0.0724 | inactive | RAB11FIP1 (RAB11 family interacting protein 1) | 1
0.542 | inactive | RAB11FIP1 (RAB11 family interacting protein 1) | 2
-0.23 | inactive | RAB11FIP1 (RAB11 family interacting protein 1) | 3
-0.425 | inactive | RAB11FIP1 (RAB11 family interacting protein 1) | 4
-0.383 | inactive | STAMBP (STAM binding protein) | 1
-0.105 | inactive | STAMBP (STAM binding protein) | 2
0.205 | inactive | STAMBP (STAM binding protein) | 3
-0.124 | inactive | CLCNKB (chloride voltage-gated channel Kb) | 1
0.321 | inactive | CLCNKB (chloride voltage-gated channel Kb) | 2
-0.523 | inactive | CLCNKB (chloride voltage-gated channel Kb) | 3
0.105 | inactive | CLCNKB (chloride voltage-gated channel Kb) | 4
-0.215 | inactive | ITGB4 (integrin subunit beta 4) | 1
-0.319 | inactive | ITGB4 (integrin subunit beta 4) | 2
-0.157 | inactive | ITGB4 (integrin subunit beta 4) | 3
-0.471 | inactive | ITGB4 (integrin subunit beta 4) | 4
-0.628 | inactive | VTN (vitronectin) | 1
0.252 | inactive | VTN (vitronectin) | 2
-0.457 | inactive | VTN (vitronectin) | 3
-0.0395 | inactive | VTN (vitronectin) | 4
-0.298 | inactive | YES1 (YES proto-oncogene 1, Src family tyrosine kinase) | 1
-0.29 | inactive | YES1 (YES proto-oncogene 1, Src family tyrosine kinase) | 2
0.0672 | inactive | YES1 (YES proto-oncogene 1, Src family tyrosine kinase) | 3
-0.259 | inactive | YES1 (YES proto-oncogene 1, Src family tyrosine kinase) | 4
-0.0688 | inactive | GPRC5A (G protein-coupled receptor class C group 5 member A) | 1
-0.52 | inactive | GPRC5A (G protein-coupled receptor class C group 5 member A) | 2
-0.225 | inactive | GPRC5A (G protein-coupled receptor class C group 5 member A) | 3
-0.307 | inactive | GPRC5A (G protein-coupled receptor class C group 5 member A) | 4
-0.648 | inactive | CA3 (carbonic anhydrase 3) | 1
-0.646 | inactive | CA3 (carbonic anhydrase 3) | 2
0.17 | inactive | NSG1 (neuronal vesicle trafficking associated 1) | 1
-0.0833 | inactive | NSG1 (neuronal vesicle trafficking associated 1) | 2
-0.478 | inactive | NSG1 (neuronal vesicle trafficking associated 1) | 3
-0.0744 | inactive | COX7A2L (cytochrome c oxidase subunit 7A2 like) | 1
0.265 | inactive | COX7A2L (cytochrome c oxidase subunit 7A2 like) | 2
-0.00622 | inactive | COX7A2L (cytochrome c oxidase subunit 7A2 like) | 3
-0.406 | inactive | KIFAP3 (kinesin associated protein 3) | 1
0.177 | inactive | KIFAP3 (kinesin associated protein 3) | 2
-0.445 | inactive | KIFAP3 (kinesin associated protein 3) | 3
-0.276 | inactive | CDK9 (cyclin dependent kinase 9) | 1
-0.54 | inactive | CDK9 (cyclin dependent kinase 9) | 2
0.137 | inactive | CDK9 (cyclin dependent kinase 9) | 3
-0.249 | inactive | CDK9 (cyclin dependent kinase 9) | 4

Laid out differently: 10 of the entries above.
CLCNKB (chloride voltage-gated channel Kb) #4
- log2 vehicle/camptothecin viability: 0.105
- call: inactive

ITGB4 (integrin subunit beta 4) #1
- log2 vehicle/camptothecin viability: -0.215
- call: inactive

ITGB4 (integrin subunit beta 4) #2
- log2 vehicle/camptothecin viability: -0.319
- call: inactive

ITGB4 (integrin subunit beta 4) #3
- log2 vehicle/camptothecin viability: -0.157
- call: inactive

ITGB4 (integrin subunit beta 4) #4
- log2 vehicle/camptothecin viability: -0.471
- call: inactive

VTN (vitronectin) #1
- log2 vehicle/camptothecin viability: -0.628
- call: inactive

VTN (vitronectin) #2
- log2 vehicle/camptothecin viability: 0.252
- call: inactive

VTN (vitronectin) #3
- log2 vehicle/camptothecin viability: -0.457
- call: inactive

VTN (vitronectin) #4
- log2 vehicle/camptothecin viability: -0.0395
- call: inactive

YES1 (YES proto-oncogene 1, Src family tyrosine kinase) #1
- log2 vehicle/camptothecin viability: -0.298
- call: inactive
